Measurements taken from patent publication US20180282402A1.
Results are given in words; binding and its absence hold for the method and conditions named. Some binding calls cover weakened binding; strength is not graded here. For some of these results: Tags and fused reporters may be left off the sequences shown.

Tests used:
[1] = target: T1, endogenous soluble human NRP2 (serum) (human) (UniProt O60462); test: HRS:NRP2 complex ELISA on human serum (capture of one partner, detection of the other)
T1 sequence (looked up): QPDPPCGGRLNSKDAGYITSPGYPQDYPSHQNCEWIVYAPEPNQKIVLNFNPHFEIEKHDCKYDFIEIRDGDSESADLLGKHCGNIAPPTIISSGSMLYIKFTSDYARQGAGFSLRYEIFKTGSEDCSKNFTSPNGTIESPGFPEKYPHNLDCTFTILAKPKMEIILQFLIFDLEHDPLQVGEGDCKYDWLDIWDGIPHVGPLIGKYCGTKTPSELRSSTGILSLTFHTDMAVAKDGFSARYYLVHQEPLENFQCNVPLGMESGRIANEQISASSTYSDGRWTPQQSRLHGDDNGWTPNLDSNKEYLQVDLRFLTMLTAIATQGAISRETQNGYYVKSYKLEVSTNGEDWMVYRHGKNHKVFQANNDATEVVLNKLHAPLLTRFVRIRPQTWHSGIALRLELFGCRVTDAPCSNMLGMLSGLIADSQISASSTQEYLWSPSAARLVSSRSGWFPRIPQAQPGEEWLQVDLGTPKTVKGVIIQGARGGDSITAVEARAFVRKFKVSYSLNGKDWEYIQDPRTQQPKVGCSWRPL

[2] = target: T1, endogenous soluble human NRP2 (serum) (human); test: HRS:NRP2 complex ELISA (MSD) on human serum: capture with an NRP2 mAb, detection with the HRS N-terminal antibody HARS_NT
[3] = target: T1, endogenous soluble human NRP2 (serum) (human); test: HRS:NRP2 complex ELISA (MSD) on human serum: capture with the HRS N-terminal mAb 12H6, detection with an NRP2 antibody
[4] = target: T1, endogenous soluble human NRP2 (serum) (human); test: HRS:NRP2 complex ELISA (MSD) on human serum: capture with an NRP2 mAb, detection with the HRS N-terminal mAb 12H6
[5] = target: T1, endogenous soluble human NRP2 (serum) (human); test: HRS:NRP2 complex ELISA (MSD) on human serum: capture with the HRS C-terminal mAb 13C8, detection with an NRP2 antibody
[6] = target: T1, endogenous soluble human NRP2 (serum) (human); test: HRS:NRP2 complex ELISA (MSD) on human serum: capture with an NRP2 mAb, detection with the HRS C-terminal mAb 13C8
[7] = target: NRP2-Fc (R&D Systems #2215-N2) (human) (UniProt O60462); test: SPR; column Binding to NRP2 observed by SPR
[8] = target: NRP2-Fc (R&D Systems #2215-N2) (human) (UniProt O60462); test: SPR
Fc-HRS(2-60) (human) [9] = target: T2, Fc-HRS(2-60) (human) (UniProt P12081); test: SPR; Fc-HRS(2-60) immobilized
T2 sequence: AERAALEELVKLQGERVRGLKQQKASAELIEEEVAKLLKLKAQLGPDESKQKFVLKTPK

Fc-HRS(2-60) (human) [10] = target: T2, Fc-HRS(2-60) (human); test: SPR: 50 nM mouse NRP2 as analyte over immobilized Fc-HRS(2-60) [panel A]
Fc-HRS(2-60) (human) [11] = target: T2, Fc-HRS(2-60) (human); test: SPR; Fc-HRS(2-60) immobilized, 50 nM analyte

Measured: binding

B1: endogenous circulating human HRS (serum) (enzyme)
chain: AERAALEELVKLQGERVRGLKQQKASAELIEEEVAKLLKLKAQLGPDESKQKFVLKTPKGTRDYSPRQMAVREKVFDVIIRCFKRHGAEVIDTPVFELKETLMGKYGEDSKLIYDLKDQGGELLSLRYDLTVPFARYLAMNKLTNIKRYHIAKVYRRDNPAMTRGRYREFYQCDFDIAGNFDPMIPDAECLKIMCEILSSLQIGDFLVKVNDRRILDGMFAICGVSDSKFRTICSSVDKLDKVSWEEVKNEMVGEKGLAPEVADRIGDYVQQHGGVSLVEQLLQDPKLSQNKQALEGLGDLKLLFEYLTLFGIDDKISFDLSLARGLDYYTGVIYEAVLLQTPAQAGEEPLGVGSVAAGGRYDGLVGMFDPKGRKVPCVGLSIGVERIFSIVEQRLEALEEKIRTTETQVLVASAQKKLLEERLKLVSELWDAGIKAELLYKKNPKLLNQLQYCEEAGIPLVAIIGEQELKDGVIKLRSVTSREEVDVRREDLVEEIKRRTGQPLCIC
binds: [1] | [2] | [3] | [4] | [5] | [6]

B2: Mouse SEMA3F-Fc (R&D Systems #3237-S3) (Fc fusion, UniProt O88632 19-785, looked up, not shown: a dimerising Fc or GST)
chain: ATPIQDQLPATPRVRLSFKELKATGTAHFFNFLLNTTDYRILLKDEDHDRMYVGSKDYVLSLDLHDINREPLIIHWAASPQRIEECILSGKDGNGECGNFVRLIQPWNRTHLYVCGTGAYNPMCTYVNRGRRAQALPWTQMQVVRGRGSRATDGADRPTPTAPRQDYIFYLEPEKLESGKGKCPYDPKLDTASALINEELYAGVYIDFMGTDAAIFRTLGKQTAMRTDQYNSRWLNDPSFIHAELIPDSAERNDDKLYFFFRERSAEAPQNPAVYARIGRICLNDDGGHCCLVNKWSTFLKARLVCSVPGEDGIETHFDELQDVFVQQTQDVRNPVIYAVFTSSGSVFRGSAVCVYSMADIRMVFNGPFAHKEGPNYQWMPFSGKMPYPRPGTCPGGTFTPSMKSTKDYPDEVINFMRTHPLMYQAVYPLQRRPLVVRTGAPYRLTTVAVDQVDAADGRYEVLFLGTDRGTVQKVIVLPKDDQEVEELMLEEVEVFKEPAPVKTMTISSKRQQLYVASAVGVTHLSLHRCQAYGAACADCCLARDPYCAWDGQACSRYTASSKRRSRRQDVRHGNPIRQCRGFNSNANKNAVESVQYGVAGSAAFLECQPRSPQATVKWLFQRDPSDRRREIRAEDRFLRTEQGLLLRALQLGDRGLYSCTATENNFKHIVTRVQLHVLGRDAVHAALFPPLAVSVPPPPGTGPPTPPYQELAQLLAQPEVGLIHQYCQGYWRHVPPRPREAPGALRPPELQDQKKPRNRRHHPPDT
binds: [7] | [8]

B3: SEMA3C-Fc (R&D Systems #5570-S3) (Fc fusion, human, UniProt Q99985 21-751, looked up, not shown: a dimerising Fc or GST)
chain: GSSQPQARVYLTFDELRETKTSEYFSLSHHPLDYRILLMDEDQDRIYVGSKDHILSLNINNISQEALSVFWPASTIKVEECKMAGKDPTHGCGNFVRVIQTFNRTHLYVCGSGAFSPVCTYLNRGRRSEDQVFMIDSKCESGKGRCSFNPNVNTVSVMINEELFSGMYIDFMGTDAAIFRSLTKRNAVRTDQHNSKWLSEPMFVDAHVIPDGTDPNDAKVYFFFKEKLTDNNRSTKQIHSMIARICPNDTGGLRSLVNKWTTFLKARLVCSVTDEDGPETHFDELEDVFLLETDNPRTTLVYGIFTTSSSVFKGSAVCVYHLSDIQTVFNGPFAHKEGPNHQLISYQGRIPYPRPGTCPGGAFTPNMRTTKEFPDDVVTFIRNHPLMYNSIYPIHKRPLIVRIGTDYKYTKIAVDRVNAADGRYHVLFLGTDRGTVQKVVVLPTNNSVSGELILEELEVFKNHAPITTMKISSKKQQLYVSSNEGVSQVSLHRCHIYGTACADCCLARDPYCAWDGHSCSRFYPTGKRRSRRQDVRHGNPLTQCRGFNLKAYRNAAEIVQYGVKNNTTFLECAPKSPQASIKWLLQKDKDRRKEVKLNERIIATSQGLLIRSVQGSDQGLYHCIATENSFKQTIAKINFKVLDSEMVAVVTDKWSPWTWASSVRALPFHPKDIMGAFSHSEMQMINQYCKDTRQQHQQGDESQKMRGDYGKLKALINSRKSRNRRNQLPES
binds: [7] | [8]

B4: Mouse NRP2-Fc (R&D Systems #7988-N2) (Fc fusion, UniProt O35375 23-864, looked up, not shown: a dimerising Fc or GST)
chain: QQDPPCGGRLNSKDAGYITSPGYPQDYPSHQNCEWIVYAPEPNQKIVLNFNPHFEIEKHDCKYDFIEIRDGDSESADLLGKHCGNIAPPTIISSGSVLYIKFTSDYARQGAGFSLRYEIFKTGSEDCSKNFTSPNGTIESPGFPEKYPHNLDCTFTILAKPRMEIILQFLTFDLEHDPLQVGEGDCKYDWLDIWDGIPHVGPLIGKYCGTKTPSKLRSSTGILSLTFHTDMAVAKDGFSARYYLIHQEPPENFQCNVPLGMESGRIANEQISASSTFSDGRWTPQQSRLHGDDNGWTPNLDSNKEYLQVDLRFLTMLTAIATQGAISRETQKGYYVKSYKLEVSTNGEDWMVYRHGKNHKIFQANNDATEVVLNKLHMPLLTRFIRIRPQTWHLGIALRLELFGCRVTDAPCSNMLGMLSGLIADTQISASSTREYLWSPSAARLVSSRSGWFPRNPQAQPGEEWLQVDLGTPKTVKGVIIQGARGGDSITAVEARAFVRKFKVSYSLNGKDWEYIQDPRTQQTKLFEGNMHYDTPDIRRFDPVPAQYVRVYPERWSPAGIGMRLEVLGCDWTDSKPTVETLGPTVKSEETTTPYPMDEDATECGENCSFEDDKDLQLPSGFNCNFDFPEETCGWVYDHAKWLRSTWISSANPNDRTFPDDKNFLKLQSDGRREGQYGRLISPPVHLPRSPVCMEFQYQAMGGHGVALQVVREASQESKLLWVIREDQGSEWKHGRIILPSYDMEYQIVFEGVIGKGRSGEISIDDIRISTDVPLENCMEPISAFAGEDFKVDIPETHGGEGYEDEIDDEYEGDWSNSSSSTSGAGDPSSGKEKSWLYTLDP
binds: Fc-HRS(2-60) (human) [9] | Fc-HRS(2-60) (human) [10] | Fc-HRS(2-60) (human) [11]
